No constants are given. Whether binding was seen depends on the method and setting. Binding seen in cells or lysates may run through a third protein. Some results given as binding are weak or reduced against the parent protein; the word gives no strength.
Tests used:
[1] = target: β-catenin (human (endogenous in 22rv1, PC3 and DU145 cells)) (UniProt P35222); experiment: co-IP; whole cell lysates (non-denaturing lysis buffer) of DTX-sensitive and DTX-resistant 22rv1, PC3 and DU145 cells in complete medium; 500 ug protein, rabbit monoclonal anti-GR or anti-total β-catenin 1:100 with Protein A/G Sepharose, 12 h at 4 °C; detection by immunoblot with mouse monoclonal antibodies; normal rabbit IgG as negative control
[2] = target: Glucocorticoid receptor (human (endogenous in 22rv1, PC3 and DU145 cells)) (UniProt P04150); experiment: co-IP; nuclear extracts (Nuclear Complex Co-IP kit, enzymatic shearing) of DTX-sensitive and DTX-resistant prostate cancer cells grown 12 h in CS-FBS medium and treated with 10 nM dexamethasone for 30 min; 100 ug extract, rabbit antibody 1/100, 12 h at 4 °C, Protein A/G Sepharose; detection by immunoblot with mouse monoclonal antibodies
[3] = target: Glucocorticoid receptor (human (endogenous in 22rv1, PC3 and DU145 cells)) (UniProt P04150); experiment: co-IP; whole cell lysates (non-denaturing lysis buffer) of DTX-sensitive and DTX-resistant 22rv1, PC3 and DU145 cells in complete medium; 500 ug protein, rabbit monoclonal anti-GR or anti-total β-catenin 1:100 with Protein A/G Sepharose, 12 h at 4 °C; detection by immunoblot with mouse monoclonal antibodies; normal rabbit IgG as negative control

Sequences of proteins named here, by UniProt entry; tags and fusion partners are left off.
UniProt P35222: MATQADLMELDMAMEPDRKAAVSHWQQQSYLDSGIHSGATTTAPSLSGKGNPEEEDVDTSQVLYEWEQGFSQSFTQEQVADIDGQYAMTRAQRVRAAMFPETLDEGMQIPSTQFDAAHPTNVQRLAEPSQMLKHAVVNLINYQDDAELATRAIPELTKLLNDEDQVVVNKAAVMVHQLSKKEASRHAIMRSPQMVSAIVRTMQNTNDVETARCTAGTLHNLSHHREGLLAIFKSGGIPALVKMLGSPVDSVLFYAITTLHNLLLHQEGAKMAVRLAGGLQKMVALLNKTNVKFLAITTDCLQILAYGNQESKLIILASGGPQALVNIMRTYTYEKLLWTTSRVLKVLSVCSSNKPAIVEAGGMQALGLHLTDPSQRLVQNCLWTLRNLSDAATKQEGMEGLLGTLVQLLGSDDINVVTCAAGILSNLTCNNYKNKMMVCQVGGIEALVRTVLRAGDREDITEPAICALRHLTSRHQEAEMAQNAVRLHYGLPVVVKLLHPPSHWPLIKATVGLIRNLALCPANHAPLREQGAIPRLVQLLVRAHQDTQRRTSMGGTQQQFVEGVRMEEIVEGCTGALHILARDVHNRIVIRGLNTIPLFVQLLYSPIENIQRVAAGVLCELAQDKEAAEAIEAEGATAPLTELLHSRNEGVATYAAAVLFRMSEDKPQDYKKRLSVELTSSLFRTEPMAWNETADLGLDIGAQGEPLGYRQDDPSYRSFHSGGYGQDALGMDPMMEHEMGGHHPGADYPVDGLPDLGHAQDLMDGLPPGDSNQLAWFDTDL
UniProt P04150: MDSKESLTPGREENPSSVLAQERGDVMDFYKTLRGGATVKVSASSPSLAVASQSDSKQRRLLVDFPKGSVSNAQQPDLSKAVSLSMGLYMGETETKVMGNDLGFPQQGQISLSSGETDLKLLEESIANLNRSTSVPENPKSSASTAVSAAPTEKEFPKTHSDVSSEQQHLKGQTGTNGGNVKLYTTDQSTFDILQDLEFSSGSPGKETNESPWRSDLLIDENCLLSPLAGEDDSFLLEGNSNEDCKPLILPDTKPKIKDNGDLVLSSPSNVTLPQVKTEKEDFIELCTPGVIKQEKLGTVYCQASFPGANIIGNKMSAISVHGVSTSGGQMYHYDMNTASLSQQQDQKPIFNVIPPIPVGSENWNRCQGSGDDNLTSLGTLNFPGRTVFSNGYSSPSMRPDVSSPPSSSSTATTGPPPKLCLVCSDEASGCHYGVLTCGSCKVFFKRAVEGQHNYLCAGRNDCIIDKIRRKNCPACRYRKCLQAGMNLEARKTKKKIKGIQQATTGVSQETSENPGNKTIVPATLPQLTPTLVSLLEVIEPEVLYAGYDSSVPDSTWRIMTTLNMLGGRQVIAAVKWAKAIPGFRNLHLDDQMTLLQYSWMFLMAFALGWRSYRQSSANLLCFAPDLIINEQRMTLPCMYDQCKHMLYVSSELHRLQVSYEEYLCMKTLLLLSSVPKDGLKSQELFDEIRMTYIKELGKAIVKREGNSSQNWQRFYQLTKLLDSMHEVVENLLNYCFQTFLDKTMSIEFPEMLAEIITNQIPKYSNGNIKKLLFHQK

| Substance | binding [1] | binding [2] | binding [3] |
| --- | --- | --- | --- |
| Glucocorticoid receptor (from UniProt P04150 1-777) | binds | – | – |
| β-catenin (from UniProt P35222 1-781) | – | binds | binds |
